Experimental data taken from patent publication US4292317A, “1,4-Dihydro-quinoline-3-carboxylic acid derivatives, process for their preparation and compositions containing them” (Laboratorie Roger Bellon, priority 1977, dated 1981).
Converted amounts (≈) assume the structure as drawn.

Key:
[1] = in vivo; conditions: dog, urine, po, 50 mg/kg, urine concentration (c), 50 mg/kg p.o., after 24 hours
[2] = tested on: Salm. typhi 0901; assay: microbe, parasite or virus in culture; format: cell-based; conditions: Salmonella enterica, 18 h
Description: (§1) The antimicrobial activity of the compounds according to the invention has been investigated in vitro on Gram positive and Gram negative bacteria using, as the culture medium, nutrient agar (N.A.) of the following formulation: […]
(§2) After sterilisation at 120° C., the pH was 6.8.
(§3) The minimum inhibitory concentrations (M.I.C.) were determined by dilution of the test compounds in this mixture, the concentration ranging from 0.05 to 100 μg/cm^3 in a geometric progression with a factor of 2.
(§4) The inoculation of the dishes was carried out by means of a multiple inoculator with 10^-3 dilutions of 18 hour old broth cultures.
(§5) The dishes were placed in an oven at 37° C. and the readings were taken afer an incubation time of 18 hours. The M.I.C. was taken as the lowest concentration which inhibited a culture.
(§6) Table 2 gives the M.I.C. of the compounds of the invention containing a chlorine atom in the 6-position against 5 Gram positive bacteria (from 1 to 5) and 17 Gram negative bacteria (from 6 to 22).

[3] = in vivo; conditions: dog, plasma, po
[4] = tested on: Strepto D.M. 19; assay: M.I.C. in vitro, nutrient agar dilution; format: cell-based; conditions: 18 h, Table III
Description: as §1, §2, §3, §4, §5, §6

[5] = tested on: Klebs. pneum. 10.031; assay: M.I.C. in vitro, nutrient agar dilution; format: cell-based; conditions: 18 h, Table III
Description: as §1, §2, §3, §4, §5, §6

[6] = tested on: Providentia 0223; assay: M.I.C. in vitro, nutrient agar dilution; format: cell-based; conditions: 18 h, Table III
Description: as §1, §2, §3, §4, §5, §6

[7] = tested on: Bord. bronchis. 4.617; assay: M.I.C. in vitro, nutrient agar dilution; format: cell-based; conditions: 18 h, Table III
Description: as §1, §2, §3, §4, §5, §6

[8] = tested on: Pr. mirabilis Nig; assay: M.I.C. in vitro, nutrient agar dilution; format: cell-based; conditions: Proteus mirabilis, 18 h, Table III
Description: as §1, §2, §3, §4, §5, §6

[9] = tested on: S. enteritidis Danysz; assay: M.I.C. in vitro, nutrient agar dilution; format: cell-based; conditions: Salmonella enterica, 18 h, Table III
Description: as §1, §2, §3, §4, §5, §6

[10] = tested on: Esch. coli 54.127 O.M.S.; assay: M.I.C. in vitro, nutrient agar dilution; format: cell-based; conditions: Escherichia coli, 18 h, Table III
Description: as §1, §2, §3, §4, §5, §6

[11] = tested on: Strepto A 561; assay: M.I.C. in vitro, nutrient agar dilution; format: cell-based; conditions: 18 h, Table III
Description: as §1, §2, §3, §4, §5, §6

[12] = tested on: Pr. morganii A.236; assay: M.I.C. in vitro, nutrient agar dilution; format: cell-based; conditions: Morganella morganii, 18 h, Table III
Description: as §1, §2, §3, §4, §5, §6

[13] = tested on: Staph. 9.144; assay: M.I.C. in vitro, nutrient agar dilution; format: cell-based; conditions: 18 h, Table III
Description: as §1, §2, §3, §4, §5, §6

[14] = tested on: B. subtilis; assay: M.I.C. in vitro, nutrient agar dilution; format: cell-based; conditions: Bacillus subtilis, 18 h, Table III
Description: as §1, §2, §3, §4, §5, §6

[15] = tested on: Serratia; assay: M.I.C. in vitro, nutrient agar dilution; format: cell-based; conditions: 18 h, Table III
Description: as §1, §2, §3, §4, §5, §6

[16] = tested on: S. oranienburg 1066; assay: M.I.C. in vitro, nutrient agar dilution; format: cell-based; conditions: Salmonella enterica, 18 h, Table III
Description: as §1, §2, §3, §4, §5, §6

[17] = tested on: Pr. vulgaris 12-53; assay: M.I.C. in vitro, nutrient agar dilution; format: cell-based; conditions: Proteus vulgaris, 1253, 18 h, Table III
Description: as §1, §2, §3, §4, §5, §6

[18] = tested on: Sh. sonnei I.P.S.; assay: M.I.C. in vitro, nutrient agar dilution; format: cell-based; conditions: Shigella sonnei, 18 h
Description: as §1, §2, §3, §4, §5, §6

[19] = tested on: Esch. coli 111 B4; assay: M.I.C. in vitro, nutrient agar dilution; format: cell-based; conditions: Escherichia coli, 18 h, Table III
Description: as §1, §2, §3, §4, §5, §6

[20] = tested on: Ps. aeruginosa 72.345; assay: M.I.C. in vitro, nutrient agar dilution; format: cell-based; conditions: Pseudomonas aeruginosa, 18 h; Table III; Pd. aeruginosa 72.345
Description: as §1, §2, §3, §4, §5, §6

[21] = tested on: Staph. 209 P; assay: M.I.C. in vitro, nutrient agar dilution; format: cell-based; conditions: 18 h, Table III
Description: as §1, §2, §3, §4, §5, §6

[22] = tested on: Arizona 6.211; assay: M.I.C. in vitro, nutrient agar dilution; format: cell-based; conditions: 18 h, Table III
Description: as §1, §2, §3, §4, §5, §6

[23] = tested on: Esch. coli 95 I.S.M.; assay: M.I.C. in vitro, nutrient agar dilution; format: cell-based; conditions: Escherichia coli, 18 h, Table III
Description: as §1, §2, §3, §4, §5, §6

[24] = tested on: Ps. aeruginosa A.22; assay: M.I.C. in vitro, nutrient agar dilution; format: cell-based; conditions: Pseudomonas aeruginosa, 18 h, Table III
Description: as §1, §2, §3, §4, §5, §6

[25] = dogs
[26] = tested on: mice; assay: in vivo; conditions: i.v. or p.o.
[27] = in vivo; conditions: mouse, in vivo, mice
[28] = tested on: Staph. aureus 50,774; assay: M.I.C. for germ used in experimental infection; format: cell-based; conditions: Staphylococcus aureus, 18 h, Table 4
Description: as §2, §3, §4, §5

[29] = tested on: Escherichia coli P 5101; assay: M.I.C. for germ used in experimental infection; format: cell-based; conditions: P5101, 18 h, Table 4, E. coli P 5101
Description: as §2, §3, §4, §5

[30] = tested on: Strept. pyogenes A. 65; assay: M.I.C. for germ used in experimental infection; format: cell-based; conditions: Streptococcus pyogenes, 18 h, Table 4
Description: as §2, §3, §4, §5

[31] = tested on: Pseudomonas aeruginosa No. 12; assay: M.I.C. for germ used in experimental infection; format: cell-based; conditions: 18 h, Table 4, P. aeruginosa No. 12
Description: as §2, §3, §4, §5

CCn1cc(C(=O)O)c(=O)c2cc(F)c(N3CCN(C)CC3)cc21 [Example 20, 1-Ethyl-6-fluoro-7-(4-methylpiperazinyl)-4-oxo-1,4-dihydro-quinoline-3-carboxylic acid]
concentration at 24 h ([1]; dog A): 54400 ng/mL
concentration at 24 h ([1]; dog B): 72000 ng/mL
concentration at 24 h ([1]; dog C): 61000 ng/mL
MIC [2]: 0.1 µg/mL (≈ 0.3 µM)
concentration at 0.5 h ([3]; 25 mg/kg, dog D, 25 mg/kg p.o.): 2600 ng/mL
concentration at 1 h ([3]; 25 mg/kg, dog D, 25 mg/kg p.o.): 7200 ng/mL
concentration at 2 h ([3]; 25 mg/kg, dog D, 25 mg/kg p.o.): 7800 ng/mL
concentration at 3 h ([3]; 25 mg/kg, dog D, 25 mg/kg p.o.): 6500 ng/mL
concentration at 4 h ([3]; 25 mg/kg, dog D, 25 mg/kg p.o.): 6100 ng/mL
concentration at 6 h ([3]; 25 mg/kg, dog D, 25 mg/kg p.o.): 4100 ng/mL
concentration at 8 h ([3]; 25 mg/kg, dog D, 25 mg/kg p.o.): 2700 ng/mL
concentration at 10 h ([3]; 25 mg/kg, dog D, 25 mg/kg p.o.): 1600 ng/mL
concentration at 24 h ([3]; 25 mg/kg, dog D, 25 mg/kg p.o.): 100 ng/mL
concentration at 0.5 h ([3]; 50 mg/kg, dog A, 50 mg/kg p.o.): 2600 ng/mL
concentration at 1 h ([3]; 50 mg/kg, dog A, 50 mg/kg p.o.): 3400 ng/mL
concentration at 2 h ([3]; 50 mg/kg, dog A, 50 mg/kg p.o.): 7700 ng/mL
concentration at 3 h ([3]; 50 mg/kg, dog A, 50 mg/kg p.o.): 10800 ng/mL
concentration at 4 h ([3]; 50 mg/kg, dog A, 50 mg/kg p.o.): 9800 ng/mL
concentration at 6 h ([3]; 50 mg/kg, dog A, 50 mg/kg p.o.): 8400 ng/mL
concentration at 8 h ([3]; 50 mg/kg, dog A, 50 mg/kg p.o.): 6400 ng/mL
concentration at 10 h ([3]; 50 mg/kg, dog A, 50 mg/kg p.o.): 5100 ng/mL
concentration at 24 h ([3]; 50 mg/kg, dog A, 50 mg/kg p.o.): 2000 ng/mL
concentration at 0.5 h ([3]; 50 mg/kg, dog B, 50 mg/kg p.o.): 4600 ng/mL
concentration at 1 h ([3]; 50 mg/kg, dog B, 50 mg/kg p.o.): 19200 ng/mL
concentration at 2 h ([3]; 50 mg/kg, dog B, 50 mg/kg p.o.): 23400 ng/mL
concentration at 3 h ([3]; 50 mg/kg, dog B, 50 mg/kg p.o.): 20600 ng/mL
concentration at 4 h ([3]; 50 mg/kg, dog B, 50 mg/kg p.o.): 18000 ng/mL
concentration at 6 h ([3]; 50 mg/kg, dog B, 50 mg/kg p.o.): 13200 ng/mL
concentration at 8 h ([3]; 50 mg/kg, dog B, 50 mg/kg p.o.): 8800 ng/mL
concentration at 10 h ([3]; 50 mg/kg, dog B, 50 mg/kg p.o.): 4500 ng/mL
concentration at 24 h ([3]; 50 mg/kg, dog B, 50 mg/kg p.o.): 300 ng/mL
concentration at 2 h ([3]; 50 mg/kg, dog C, 50 mg/kg p.o.): 4400 ng/mL
concentration at 3 h ([3]; 50 mg/kg, dog C, 50 mg/kg p.o.): 11200 ng/mL
concentration at 4 h ([3]; 50 mg/kg, dog C, 50 mg/kg p.o.): 17200 ng/mL
concentration at 6 h ([3]; 50 mg/kg, dog C, 50 mg/kg p.o.): 16400 ng/mL
concentration at 8 h ([3]; 50 mg/kg, dog C, 50 mg/kg p.o.): 10400 ng/mL
concentration at 10 h ([3]; 50 mg/kg, dog C, 50 mg/kg p.o.): 6200 ng/mL
concentration at 24 h ([3]; 50 mg/kg, dog C, 50 mg/kg p.o.): 800 ng/mL
MIC [4]: 0.8 to 1.6 µg/mL (≈ 2.4 to 4.8 µM)
MIC [5]: 0.05 to 0.1 µg/mL (≈ 0.15 to 0.3 µM)
MIC [6]: 0.8 to 1.6 µg/mL (≈ 2.4 to 4.8 µM)
MIC [7]: 0.8 to 3.1 µg/mL (≈ 2.4 to 9.3 µM)
MIC [8]: 0.2 to 0.4 µg/mL (≈ 0.6 to 1.2 µM)
MIC [9]: 0.1 to 0.2 µg/mL (≈ 0.3 to 0.6 µM)
MIC [10]: 0.1 µg/mL (≈ 0.3 µM)
MIC [11]: 0.8 to 3.1 µg/mL (≈ 2.4 to 9.3 µM)
MIC [12]: 0.1 to 0.4 µg/mL (≈ 0.3 to 1.2 µM)
MIC [13]: 0.2 µg/mL (≈ 0.6 µM)
MIC [14]: 0.05 to 0.1 µg/mL (≈ 0.15 to 0.3 µM)
MIC [15]: 0.8 µg/mL (≈ 2.4 µM)
MIC [16]: 3.1 µg/mL (≈ 9.3 µM)
MIC [17]: 0.1 to 0.4 µg/mL (≈ 0.3 to 1.2 µM)
MIC [18]: 0.01 to 0.02 µg/mL (≈ 0.03 to 0.06 µM)
MIC [19]: 0.05 to 0.1 µg/mL (≈ 0.15 to 0.3 µM)
MIC [20]: 0.8 µg/mL (≈ 2.4 µM)
MIC [21]: 0.2 µg/mL (≈ 0.6 µM)
MIC [22]: 0.1 to 0.2 µg/mL (≈ 0.3 to 0.6 µM)
MIC [23]: 0.1 µg/mL (≈ 0.3 µM)
MIC [24]: 0.8 µg/mL (≈ 2.4 µM)
digestive disorder or disorder of central nervous origin ([25]; 50 mg/kg oral): did not cause any digestive disorder or any disorder of central nervous origin
tolerance on oral administration ([25]; oral): very well tolerated
toxicity (in words) [26]: very low toxicity
LD50 ([27]; iv): 350 mg/kg
LD50 ([27]; po): > 2000 mg/kg
MIC [28]: 0.39 µg/mL (≈ 1.17 µM)
MIC [29]: 0.1 µg/mL (≈ 0.3 µM)
MIC [30]: 3.13 µg/mL (≈ 9.39 µM)
MIC [31]: 1.56 µg/mL (≈ 4.68 µM)
